17 targets from the supplement of paper PMC6411743 can be followed below.

By UniProt entry, the sequences of proteins in these tests, tags left out. Where a name states a change or a piece, a line headed by the entry shows the natural chain unless it says otherwise.
UniProt P40937, whole entry: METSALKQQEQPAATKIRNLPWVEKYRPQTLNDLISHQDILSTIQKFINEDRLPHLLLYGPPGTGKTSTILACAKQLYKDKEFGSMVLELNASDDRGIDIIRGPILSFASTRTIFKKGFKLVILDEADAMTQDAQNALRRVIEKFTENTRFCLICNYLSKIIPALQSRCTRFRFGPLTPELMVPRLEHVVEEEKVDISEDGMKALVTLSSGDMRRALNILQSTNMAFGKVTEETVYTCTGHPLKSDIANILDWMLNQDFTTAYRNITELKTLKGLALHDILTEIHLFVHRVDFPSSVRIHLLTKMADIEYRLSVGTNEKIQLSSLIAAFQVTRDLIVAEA
UniProt P51817: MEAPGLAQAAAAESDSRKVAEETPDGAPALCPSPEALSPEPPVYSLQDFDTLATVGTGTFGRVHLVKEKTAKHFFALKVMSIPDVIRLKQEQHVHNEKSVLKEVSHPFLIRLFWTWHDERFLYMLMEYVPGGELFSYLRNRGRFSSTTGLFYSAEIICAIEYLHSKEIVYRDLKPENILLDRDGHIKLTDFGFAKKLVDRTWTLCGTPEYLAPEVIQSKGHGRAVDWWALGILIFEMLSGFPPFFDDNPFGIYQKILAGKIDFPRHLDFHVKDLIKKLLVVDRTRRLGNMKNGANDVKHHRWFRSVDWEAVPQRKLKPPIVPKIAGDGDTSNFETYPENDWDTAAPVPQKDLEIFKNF
UniProt P51649: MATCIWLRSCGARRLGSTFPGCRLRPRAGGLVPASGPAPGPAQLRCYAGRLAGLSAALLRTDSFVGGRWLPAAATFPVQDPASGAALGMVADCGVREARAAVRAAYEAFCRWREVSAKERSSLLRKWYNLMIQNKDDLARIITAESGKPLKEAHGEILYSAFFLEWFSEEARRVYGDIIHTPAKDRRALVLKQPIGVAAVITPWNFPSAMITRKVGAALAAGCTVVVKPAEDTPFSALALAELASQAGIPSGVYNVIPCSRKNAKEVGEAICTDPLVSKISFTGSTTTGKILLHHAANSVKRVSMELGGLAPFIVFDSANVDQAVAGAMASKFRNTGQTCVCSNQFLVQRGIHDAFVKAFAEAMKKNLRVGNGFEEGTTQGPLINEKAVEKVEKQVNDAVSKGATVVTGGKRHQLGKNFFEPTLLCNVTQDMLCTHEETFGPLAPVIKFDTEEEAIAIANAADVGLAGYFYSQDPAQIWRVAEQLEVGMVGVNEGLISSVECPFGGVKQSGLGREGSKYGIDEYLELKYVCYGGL
UniProt P42338: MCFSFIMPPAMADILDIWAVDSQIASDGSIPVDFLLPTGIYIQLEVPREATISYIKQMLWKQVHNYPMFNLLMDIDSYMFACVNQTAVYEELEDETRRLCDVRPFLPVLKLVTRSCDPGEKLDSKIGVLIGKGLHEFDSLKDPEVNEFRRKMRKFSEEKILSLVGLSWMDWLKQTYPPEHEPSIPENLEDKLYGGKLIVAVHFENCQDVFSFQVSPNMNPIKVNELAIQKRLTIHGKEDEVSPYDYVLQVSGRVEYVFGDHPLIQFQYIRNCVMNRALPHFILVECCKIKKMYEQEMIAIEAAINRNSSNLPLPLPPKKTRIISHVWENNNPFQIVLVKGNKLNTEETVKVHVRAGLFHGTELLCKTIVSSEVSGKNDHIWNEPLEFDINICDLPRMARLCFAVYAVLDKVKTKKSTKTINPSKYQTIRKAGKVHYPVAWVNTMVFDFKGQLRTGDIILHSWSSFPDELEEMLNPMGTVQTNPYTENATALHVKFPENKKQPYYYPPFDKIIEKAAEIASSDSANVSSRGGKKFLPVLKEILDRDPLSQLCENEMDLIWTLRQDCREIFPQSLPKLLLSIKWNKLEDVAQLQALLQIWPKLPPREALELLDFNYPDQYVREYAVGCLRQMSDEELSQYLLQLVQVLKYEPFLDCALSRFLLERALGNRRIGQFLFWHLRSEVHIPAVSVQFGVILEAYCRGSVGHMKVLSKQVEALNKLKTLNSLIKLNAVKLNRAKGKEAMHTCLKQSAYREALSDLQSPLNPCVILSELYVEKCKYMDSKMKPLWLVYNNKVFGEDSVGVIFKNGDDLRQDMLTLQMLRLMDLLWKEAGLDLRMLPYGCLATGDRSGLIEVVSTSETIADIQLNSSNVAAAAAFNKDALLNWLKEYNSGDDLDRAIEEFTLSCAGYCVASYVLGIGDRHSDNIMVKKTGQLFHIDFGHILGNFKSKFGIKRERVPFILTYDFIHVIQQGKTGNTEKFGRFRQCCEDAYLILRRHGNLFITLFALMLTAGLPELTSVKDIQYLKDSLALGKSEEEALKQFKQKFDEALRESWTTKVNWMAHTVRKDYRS
UniProt P49757: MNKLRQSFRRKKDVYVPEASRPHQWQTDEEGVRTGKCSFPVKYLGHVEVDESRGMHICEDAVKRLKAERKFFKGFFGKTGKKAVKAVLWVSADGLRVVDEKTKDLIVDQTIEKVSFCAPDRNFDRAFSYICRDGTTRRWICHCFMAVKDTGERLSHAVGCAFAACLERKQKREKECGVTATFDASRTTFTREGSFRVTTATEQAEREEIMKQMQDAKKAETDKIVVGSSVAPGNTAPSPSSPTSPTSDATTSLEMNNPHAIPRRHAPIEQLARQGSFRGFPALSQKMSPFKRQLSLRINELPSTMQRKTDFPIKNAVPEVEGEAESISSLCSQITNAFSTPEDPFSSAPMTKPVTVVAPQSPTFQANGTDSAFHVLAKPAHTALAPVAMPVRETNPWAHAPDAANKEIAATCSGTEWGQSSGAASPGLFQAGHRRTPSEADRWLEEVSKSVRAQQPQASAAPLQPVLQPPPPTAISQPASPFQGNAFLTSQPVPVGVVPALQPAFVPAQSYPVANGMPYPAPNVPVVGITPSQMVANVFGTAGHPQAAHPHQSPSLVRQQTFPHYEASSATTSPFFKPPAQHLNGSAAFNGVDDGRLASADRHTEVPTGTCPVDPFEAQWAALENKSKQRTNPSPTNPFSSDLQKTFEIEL
UniProt P51570: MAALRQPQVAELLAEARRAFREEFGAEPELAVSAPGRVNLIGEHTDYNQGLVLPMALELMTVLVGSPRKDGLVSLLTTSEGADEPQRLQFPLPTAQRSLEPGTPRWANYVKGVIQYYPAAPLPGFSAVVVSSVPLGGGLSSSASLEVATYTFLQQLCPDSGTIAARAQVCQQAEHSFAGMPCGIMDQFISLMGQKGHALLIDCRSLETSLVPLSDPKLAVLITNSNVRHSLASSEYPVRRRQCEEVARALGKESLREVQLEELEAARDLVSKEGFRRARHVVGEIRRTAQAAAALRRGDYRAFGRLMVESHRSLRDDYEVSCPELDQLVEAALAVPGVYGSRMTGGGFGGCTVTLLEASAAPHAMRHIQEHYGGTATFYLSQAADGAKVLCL
UniProt P41212: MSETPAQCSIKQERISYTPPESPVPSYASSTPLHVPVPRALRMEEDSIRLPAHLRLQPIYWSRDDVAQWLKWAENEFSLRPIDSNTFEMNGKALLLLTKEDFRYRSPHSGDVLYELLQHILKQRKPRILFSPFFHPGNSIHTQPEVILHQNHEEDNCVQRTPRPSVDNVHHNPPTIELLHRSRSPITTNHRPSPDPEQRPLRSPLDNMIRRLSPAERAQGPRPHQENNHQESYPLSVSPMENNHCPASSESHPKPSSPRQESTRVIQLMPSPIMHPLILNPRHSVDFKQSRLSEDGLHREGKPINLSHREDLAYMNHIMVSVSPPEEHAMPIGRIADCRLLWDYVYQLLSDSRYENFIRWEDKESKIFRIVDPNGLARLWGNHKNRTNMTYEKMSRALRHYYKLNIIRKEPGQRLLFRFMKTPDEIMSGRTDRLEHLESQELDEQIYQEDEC
UniProt P49642: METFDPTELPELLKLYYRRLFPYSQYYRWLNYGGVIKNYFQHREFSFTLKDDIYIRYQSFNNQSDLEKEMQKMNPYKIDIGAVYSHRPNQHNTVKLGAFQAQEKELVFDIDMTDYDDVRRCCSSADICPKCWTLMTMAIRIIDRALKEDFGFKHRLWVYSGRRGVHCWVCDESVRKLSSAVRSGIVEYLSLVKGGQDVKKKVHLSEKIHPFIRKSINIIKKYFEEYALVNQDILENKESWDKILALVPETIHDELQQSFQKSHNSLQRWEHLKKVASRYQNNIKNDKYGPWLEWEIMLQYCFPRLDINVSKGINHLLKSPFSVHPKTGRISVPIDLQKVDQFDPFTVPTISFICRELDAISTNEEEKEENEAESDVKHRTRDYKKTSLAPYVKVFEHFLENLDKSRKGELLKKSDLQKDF
UniProt P47813, whole entry: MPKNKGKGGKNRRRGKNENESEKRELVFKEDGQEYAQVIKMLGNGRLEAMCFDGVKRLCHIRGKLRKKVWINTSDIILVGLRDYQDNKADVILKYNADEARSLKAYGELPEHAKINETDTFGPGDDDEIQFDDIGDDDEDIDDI
UniProt P38432, whole entry: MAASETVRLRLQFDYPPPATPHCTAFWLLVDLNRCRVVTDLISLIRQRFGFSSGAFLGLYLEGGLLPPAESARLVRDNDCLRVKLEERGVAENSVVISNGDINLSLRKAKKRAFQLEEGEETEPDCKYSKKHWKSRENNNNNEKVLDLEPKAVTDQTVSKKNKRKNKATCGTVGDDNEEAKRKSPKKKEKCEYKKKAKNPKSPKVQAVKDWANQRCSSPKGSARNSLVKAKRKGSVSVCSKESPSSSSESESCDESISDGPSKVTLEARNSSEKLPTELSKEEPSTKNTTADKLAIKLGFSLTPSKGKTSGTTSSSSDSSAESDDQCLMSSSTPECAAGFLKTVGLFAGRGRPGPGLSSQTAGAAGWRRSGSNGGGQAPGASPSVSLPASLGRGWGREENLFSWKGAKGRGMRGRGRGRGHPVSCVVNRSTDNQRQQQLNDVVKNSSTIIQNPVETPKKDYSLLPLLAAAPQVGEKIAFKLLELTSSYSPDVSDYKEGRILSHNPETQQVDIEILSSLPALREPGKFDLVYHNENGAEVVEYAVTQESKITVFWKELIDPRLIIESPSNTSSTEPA
UniProt P51970, whole entry: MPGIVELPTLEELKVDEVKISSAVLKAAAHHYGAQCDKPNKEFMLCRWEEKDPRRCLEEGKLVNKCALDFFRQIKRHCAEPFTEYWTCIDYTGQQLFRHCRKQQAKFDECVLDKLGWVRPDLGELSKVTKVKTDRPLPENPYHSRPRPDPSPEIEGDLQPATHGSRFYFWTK
UniProt P51948: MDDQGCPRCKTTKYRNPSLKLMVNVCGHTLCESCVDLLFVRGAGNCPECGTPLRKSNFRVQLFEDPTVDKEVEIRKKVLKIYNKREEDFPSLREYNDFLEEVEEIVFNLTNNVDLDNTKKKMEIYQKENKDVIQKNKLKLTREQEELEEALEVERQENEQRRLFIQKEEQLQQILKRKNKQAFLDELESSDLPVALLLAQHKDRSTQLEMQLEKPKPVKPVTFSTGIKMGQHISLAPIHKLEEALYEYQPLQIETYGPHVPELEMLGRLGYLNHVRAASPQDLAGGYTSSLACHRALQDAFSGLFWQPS

± gives the standard deviation of the averaged measurements. Only a part is listed here, and it is no random draw.

Compound in the assay: Nc1ncnc2c1ncn2[C@@H]1O[C@H](COP(=O)(O)OP(=O)(O)OP(=O)(O)O)[C@@H](O)[C@H]1O [adenosine triphosphate]
The experiment in a line: NP40-soluble protein abundance relative to vehicle (solubility fold change) (ratio); higher = more soluble protein in presence of ATP. Put shortly: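 Data come from three independent experiments in which Dounce-homogenised Jurkat crude lysate was treated at eight concentrations from 0.1 to 10 mM. Treatment ran 10 min at room temperature and then 3 min at 37 °C, after which 0.8% NP40 and benzonase were added for 60 min at 4 °C before ultracentrifugation. The supernatant underwent TMT labelling and LC-MS/MS, and vsn-normalised intensities were expressed as fold change against the detergent-processed vehicle in each replicate.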

Consider RFC5 (UniProt P40937), for which the NP40-soluble protein abundance came to 1.17 ± 0.031 (concentration: 1mM); 1.24 ± 0.059 (concentration: 2mM); 1.24 ± 0.021 (concentration: 4mM); 1.23 ± 0.058 (concentration: 6mM); 1.24 ± 0.04 (concentration: 8mM); 1.3 ± 0.041 (concentration: 10mM).
In the case of RPL5 (UniProt P46777), the NP40-soluble protein abundance reads like this: (concentration: 1mM) 0.898 ± 0.037; (concentration: 2mM) 0.889 ± 0.054; (concentration: 4mM) 0.856 ± 0.059; (concentration: 6mM) 0.837 ± 0.058; (concentration: 8mM) 0.763 ± 0.02; (concentration: 10mM) 0.863 ± 0.042.
As for PRKX (UniProt P51817), the NP40-soluble protein abundance (concentration: 1mM) was found to be 0.958 ± 0.096; the NP40-soluble protein abundance (concentration: 2mM) worked out at 1.02 ± 0.013; the NP40-soluble protein abundance (concentration: 4mM) stood at 1.07 ± 0.032; the NP40-soluble protein abundance (concentration: 6mM) came to 1.08 ± 0.099; the NP40-soluble protein abundance (concentration: 8mM) stood at 0.958 ± 0.026; the NP40-soluble protein abundance (concentration: 10mM) amounted to 1.01 ± 0.03.
In the case of HPCAL1 (UniProt P37235), the NP40-soluble protein abundance reads like this: (concentration: 1mM) 0.953 ± 0.017; (concentration: 2mM) 0.96002 ± 0.00077; (concentration: 4mM) 0.946 ± 0.015; (concentration: 6mM) 0.955 ± 0.016; (concentration: 8mM) 0.929 ± 0.043; (concentration: 10mM) 0.883 ± 0.044.
As to UniProt P51649 and related entries, the NP40-soluble protein abundance (concentration: 1mM) came out at 0.985 ± 0.024; the NP40-soluble protein abundance (concentration: 2mM) came out at 0.984 ± 0.011; the NP40-soluble protein abundance (concentration: 4mM) is 0.959 ± 0.029; the NP40-soluble protein abundance (concentration: 6mM) is 0.988 ± 0.027; the NP40-soluble protein abundance (concentration: 8mM) came out at 0.981 ± 0.018; the NP40-soluble protein abundance (concentration: 10mM) was determined as 0.963 ± 0.027.
With PIK3CB (UniProt P42338), the NP40-soluble protein abundance (concentration: 1mM) was found to be 1.03 ± 0.17; the NP40-soluble protein abundance (concentration: 2mM) was 0.972 ± 0.11; the NP40-soluble protein abundance (concentration: 4mM) stood at 1.03 ± 0.1; the NP40-soluble protein abundance (concentration: 6mM) worked out at 0.995 ± 0.17; the NP40-soluble protein abundance (concentration: 8mM) came out at 1.06 ± 0.19; the NP40-soluble protein abundance (concentration: 10mM) was 0.984 ± 0.15.
As to UniProt P49757 and related entries, the NP40-soluble protein abundance runs as follows: (concentration: 1mM) 1.1 ± 0.045; (concentration: 2mM) 1.12 ± 0.044; (concentration: 4mM) 1.11 ± 0.019; (concentration: 6mM) 1.14 ± 0.018; (concentration: 8mM) 1.09 ± 0.022; (concentration: 10mM) 1.103 ± 0.0072.
Regarding GALK1 (UniProt P51570), the NP40-soluble protein abundance reads like this: (concentration: 1mM) 0.952 ± 0.052; (concentration: 2mM) 0.973 ± 0.042; (concentration: 4mM) 0.948 ± 0.025; (concentration: 6mM) 0.927 ± 0.08; (concentration: 8mM) 0.94 ± 0.03; (concentration: 10mM) 0.963 ± 0.051.
As for ETV6 (UniProt P41212), the NP40-soluble protein abundance (concentration: 1mM) amounted to 1.26 ± 0.02; the NP40-soluble protein abundance (concentration: 2mM) was found to be 1.25 ± 0.047; the NP40-soluble protein abundance (concentration: 4mM) was found to be 1.37 ± 0.016; the NP40-soluble protein abundance (concentration: 6mM) was 1.4 ± 0.014; the NP40-soluble protein abundance (concentration: 8mM) turned out to be 1.51 ± 0.072; the NP40-soluble protein abundance (concentration: 10mM) was 1.476 ± 0.0044.
For PRIM1 (UniProt P49642), the NP40-soluble protein abundance by setting is: (concentration: 1mM) 0.972 ± 0.038; (concentration: 2mM) 0.961 ± 0.033; (concentration: 4mM) 0.938 ± 0.059; (concentration: 6mM) 0.946 ± 0.02; (concentration: 8mM) 0.955 ± 0.053; (concentration: 10mM) 0.958 ± 0.033.
For the target UniProt P46783 and related entries, the NP40-soluble protein abundance (concentration: 1mM) was 0.969 ± 0.14; the NP40-soluble protein abundance (concentration: 2mM) stood at 0.917 ± 0.1; the NP40-soluble protein abundance (concentration: 4mM) amounted to 0.888 ± 0.11; the NP40-soluble protein abundance (concentration: 6mM) came out at 0.884 ± 0.15; the NP40-soluble protein abundance (concentration: 8mM) was 0.814 ± 0.092; the NP40-soluble protein abundance (concentration: 10mM) amounted to 0.857 ± 0.074.
In the case of UniProt P47813, the NP40-soluble protein abundance (concentration: 1mM) is 0.86926 ± 0.00016; the NP40-soluble protein abundance (concentration: 2mM) is 0.951 ± 0.085; the NP40-soluble protein abundance (concentration: 4mM) came to 0.975 ± 0.086; the NP40-soluble protein abundance (concentration: 6mM) is 0.939 ± 0.095; the NP40-soluble protein abundance (concentration: 8mM) worked out at 1.03 ± 0.073; the NP40-soluble protein abundance (concentration: 10mM) came to 1.104 ± 0.011.
With UniProt P51157 and related entries, the NP40-soluble protein abundance is, setting by setting: (concentration: 1mM) 1.01 ± 0.037; (concentration: 2mM) 1.01 ± 0.037; (concentration: 4mM) 1.007 ± 0.0076; (concentration: 6mM) 0.975 ± 0.075; (concentration: 8mM) 0.958 ± 0.028; (concentration: 10mM) 0.975 ± 0.032.
As to CAPZA1 (UniProt P52907), the NP40-soluble protein abundance is 1.01 ± 0.029 (concentration: 1mM); 0.977 ± 0.033 (concentration: 2mM); 0.962 ± 0.017 (concentration: 4mM); 1.01 ± 0.038 (concentration: 6mM); 0.964 ± 0.041 (concentration: 8mM); 0.954 ± 0.046 (concentration: 10mM).
Turning to COIL (UniProt P38432), the NP40-soluble protein abundance is, setting by setting: (concentration: 1mM) 1.13 ± 0.13; (concentration: 2mM) 1.17 ± 0.16; (concentration: 4mM) 1.36 ± 0.1; (concentration: 6mM) 1.45 ± 0.21; (concentration: 8mM) 1.49 ± 0.17; (concentration: 10mM) 1.67 ± 0.13.
On to NDUFA8 (UniProt P51970), for which the NP40-soluble protein abundance reads like this: (concentration: 1mM) 0.987 ± 0.067; (concentration: 2mM) 0.941 ± 0.04; (concentration: 4mM) 0.938 ± 0.041; (concentration: 6mM) 0.941 ± 0.069; (concentration: 8mM) 0.992 ± 0.04; (concentration: 10mM) 0.918 ± 0.064.
For the target MNAT1 (UniProt P51948), the NP40-soluble protein abundance amounted to 1 ± 0.053 (concentration: 1mM); 0.994 ± 0.017 (concentration: 2mM); 0.991 ± 0.03 (concentration: 4mM); 1.06 ± 0.058 (concentration: 6mM); 1.004 ± 0.0089 (concentration: 8mM); 0.987 ± 0.016 (concentration: 10mM).
